Laboratory results reported in PubChem BioAssay AID2685 (National Center for Advancing Translational Sciences (NCATS), 2010).
The campaign covered roughly 320,000 compounds. About 2,100 (0.66%) were called active. This list was built around the results that the source calls inconclusive (neither active nor inactive); the mix of calls is not that of the screen. Calls follow the shape of the dose curve; as a rule, active = well fitted inhibition curve with a large enough effect in the signal ratio, with a control signal flat (not every such curve was filed as active); inconclusive = small, poorly fitted or top-dose-only effect, or effect the other way, or a change in a side signal; inactive = flat fitted curve, though single readings scatter; the % refers to the signal ratio. Potencies beside an inconclusive call are fits to weak or partial responses and may not hold up.
% is scaled to controls: 0 for no effect and ±100 for the full control effect; potency is read from the fitted curve at half-maximal effect.

Test: qHTS Assay for Lipid Storage Modulators in Drosophila S3 Cells
Conditions: BODIPY lipid droplet fluorescence, 18-24 h, cells fed with added oleic acid; lipid storage change, negative = inhibition: at 46.1 µM (top of the series) unless noted
How it was run: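 Laser-scanning cytometry quantifies lipid droplet accumulation (500–530 nm total intensity; droplet/cell object ratio) in oleic acid-fed (400 uM added) Drosophila S3 cells treated with a concentration series. 20 uM Triacsin C defined 100% inhibition.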
With `COCCn1c(SCC(=O)NCc2ccc3c(c2)OCO3)nnc1C(C)C` the Potency was inconclusive: 0.206 µM [activator, partial curve].
With `CC(=O)N=c1sc2cc(C)ccc2n1C` the lipid storage change, negative = inhibition was inconclusive: 77.5%.
In the case of `COc1ccc(NC(=O)C2CCC(=O)N2S(=O)(=O)c2ccc(C)cc2)cc1Cl` (centres undefined), the Potency is reported as inconclusive: 0.651 µM [activator, partial curve, poor fit].
In the case of `O=C(N/N=C/c1coc2ccc(Cl)cc2c1=O)c1cc(O)cc(O)c1`, the Potency is reported as inconclusive: 0.0065 µM [falling, full curve, poor fit].
For `O=C(COc1ccccc1Br)N1CCNC1=O`, the lipid storage change, negative = inhibition was “inactive”.
In the case of `Cc1nc2ccc(S(=O)(=O)NC(C(=O)NC3CCCC3)C(C)C)cc2s1` (centres undefined), the lipid storage change, negative = inhibition is reported as inconclusive: -3.34%.
For `Cc1ccc2c(c1)N(CC(=O)NC1CCCC(C)C1C)C(=O)c1cccnc1O2` (centres undefined), the lipid storage change, negative = inhibition was inconclusive: -38.8%.
With `CCn1c(O)c(N=NC(=O)c2cccnc2)c2cc(Br)ccc21` the lipid storage change, negative = inhibition was inconclusive: 9.44%.
For `COc1ccc(CNC(=O)C2CC(c3ccccc3C(F)(F)F)=NO2)cc1` (centres undefined), the lipid storage change, negative = inhibition was inconclusive: 20.4%.
For `O=C(O)CC[C@@H](C(=O)O)N1C(=O)c2ccccc2C1=O`, the lipid storage change, negative = inhibition was inconclusive: -11%.
In the case of `Cn1nc([N+](=O)[O-])nc1Oc1ccc(C(C)(C)C)cc1`, the lipid storage change, negative = inhibition is reported as inconclusive: -8.94%.
In the case of `CCNC(=O)COc1cccc(C(=O)NCc2ccccc2)c1`, the lipid storage change, negative = inhibition is reported as inconclusive: -33.4%.
For `CCN(CC)CCCN(C(=O)c1cccc(C)c1)c1nc(-c2ccc(OC)cc2)cs1`, the Potency was inconclusive: 29.1 µM [falling, single point].
In the case of `CN(C)c1ccc(/C=N/N(CCC(=O)NC(C)(C)C)C2=NS(=O)(=O)c3ccccc32)cc1`, the Potency is reported as inconclusive: 7.31 µM [falling, partial curve].
In the case of `O=C(OC(C(=O)NCC1CCCO1)c1ccccn1)c1cccs1` (centres undefined), the Potency is reported as inconclusive: 2.06 µM [activator, partial curve, poor fit].
With `COc1ccc(C(=O)N2CCN=C2SCc2cccnc2)c(OC)c1` the Potency was inconclusive: 32.6 µM [falling, single point].
In the case of `O=C(Nc1ccccc1)N1CCN(c2cccc(C(F)(F)F)c2)CC1`, the Potency is reported as inconclusive: 16.4 µM [activator, partial curve].
In the case of `S=c1[nH]nc(COc2ccccc2)n1/N=C/c1ccc(Br)s1`, the lipid storage change, negative = inhibition is reported as inconclusive: -4.09%.
In the case of `COc1ccccc1/C=C(/C(=O)OCC(=O)Nc1ccc(N(C)C)cc1)c1ccccc1`, the lipid storage change, negative = inhibition is reported as inconclusive: -13.5%.
For `Cc1ccc(N2C(=S)N=C(Nc3ccccc3C)C23CCOC(C)(C)C3)cc1` (centres undefined), the lipid storage change, negative = inhibition was inconclusive: -14.8%.
In the case of `CC(Oc1ccc2c3c(c(=O)oc2c1)CCC3)C(=O)NCCCn1ccnc1` (centres undefined), the lipid storage change, negative = inhibition is reported as inconclusive: -144%.
In the case of `c1ccc(CCCNc2ncnc3nc[nH]c23)cc1`, the lipid storage change, negative = inhibition is reported as inconclusive: -18.3%.
For `O=C(COc1ccc2c(c1)OCO2)Nc1ccccc1F`, the lipid storage change, negative = inhibition was inconclusive: 2.6%.
In the case of `CCc1nnc(NC(=O)c2cccc(S(=O)(=O)N3CCc4ccccc43)c2)s1`, the lipid storage change, negative = inhibition is reported as inconclusive: -1.43%.
In the case of `COc1ccc(NC(=O)c2ccco2)cc1NC(=O)c1cccc(F)c1`, the Potency is reported as inconclusive: 6.51 µM [falling, partial curve, poor fit].
In the case of `O=C(c1cc(-c2ccccn2)nc2ccc(Cl)cc12)N1CCN(CCc2ccccc2)CC1`, the lipid storage change, negative = inhibition is reported as inconclusive: -60%.
For `O=C(NCC1CCCO1)c1cc2n(n1)C(C(F)(F)F)CC(c1ccc(Br)cc1)N2` (centres undefined), the lipid storage change, negative = inhibition was inconclusive: -6.17%.
For `Cc1cc2n(n1)C(c1ccccc1)Nc1ccccc1-2` (centres undefined), the Potency was inconclusive: 29.1 µM [activator, single point].
In the case of `CCCn1nc([N+](=O)[O-])c(C(C#N)c2nc3ccccc3o2)c(Cl)c1=O` (centres undefined), the lipid storage change, negative = inhibition is reported as inconclusive: 24.1%.
With `CCOC(=O)N1CCN(CC(O)COC2CC(C)CC(C)(C)C2)CC1` (centres undefined) the lipid storage change, negative = inhibition was inconclusive: 5.07%.
With `CC(=O)OC[C@H]1O[C@@H](n2ccc(=O)[nH]c2=S)C(OC(C)=O)C1OC(C)=O` (some centres undefined) the lipid storage change, negative = inhibition was inconclusive: 8.91%.
With `COc1ccc2c(c1OC)c(=O)n1c3ccc(OC(C)C(=O)NCCN4CCOCC4)cc3c3ccnc2c31` (centres undefined) the lipid storage change, negative = inhibition was inconclusive: -32.4%.
For `Cc1ccc(S(=O)(=O)NC2=NCN(CCc3ccccc3)CN2)cc1`, the lipid storage change, negative = inhibition was inconclusive: -98.1%.
With `O=C(Nc1ccnn1C1CCN(Cc2cccc(F)c2F)CC1)C1CCCC1` the Potency was inconclusive: 0.326 µM [activator, full curve, poor fit].
With `CC(C)=N/N=c1\scc(C)n1Cc1ccco1` the lipid storage change, negative = inhibition was inconclusive: 34.5%.
For `CCc1nc2c(c(SC)nn2-c2ccccc2)c(N)c1C(=O)OC`, the lipid storage change, negative = inhibition was inconclusive: -16.7%.
With `Cc1ccc(-n2ncc3c(=O)n(CC(=O)N4CCN(C(=O)c5ccco5)CC4)cnc32)cc1` the lipid storage change, negative = inhibition was inconclusive: 3.03%.
For `COc1cc2c(O)c3c(c(-c4ccc5c(c4)OCO5)c2cc1OC)C(=O)OC3`, the Potency was inconclusive: 25.9 µM [falling, single point].
In the case of `COc1cc2c(cc1NC(=O)c1cccnc1)CCCC2`, the lipid storage change, negative = inhibition is reported as “inactive”.
For `O=C(Nc1cc(-c2nc3ncccc3o2)ccc1Cl)c1ccc([N+](=O)[O-])o1`, the Potency was inconclusive: 29.1 µM [falling, single point].
With `CCOC(=O)c1cc(S(=O)(=O)N(C)Cc2ccccc2)cn1C` the Potency was inconclusive: 29.1 µM [falling, single point].
For `O=C(Nc1ccc(N2CCN(C(=O)c3cccs3)CC2)cc1)c1ccc(Br)o1`, the lipid storage change, negative = inhibition was inconclusive: -7.38%.
In the case of `O=C(CCCN1C(=O)c2ccccc2C1=O)NC1=NCCS1`, the lipid storage change, negative = inhibition is reported as inconclusive: 33.9%.
For `CCOc1ccccc1Nc1cc2n(c(=O)n1)CCc1cc(OC)c(OC)cc1-2`, the lipid storage change, negative = inhibition was inconclusive: -12.6%.
For `Cc1nc2ccc(NC(=O)c3cccs3)cc2s1`, the lipid storage change, negative = inhibition was inconclusive: -26.5%.
With `O=C(O)CN1C(=O)/C(=C\c2cccc(OCc3ccc(Cl)cc3)c2)SC1=S` the Potency was inconclusive: 29.1 µM [activator, single point].
In the case of `Cc1nn(C(C)C(=O)NCCCN(Cc2ccccc2)C(C)C)c(=O)c2c1sc1ccccc12` (centres undefined), the Potency is reported as inconclusive: 6.51 µM [activator, single point].
For `CN1C(c2ccc(F)cc2)=CS/C1=C(/C#N)c1nnc(N2CCOCC2)n1-c1ccccc1`, the Potency was inconclusive: 9.2 µM [activator, partial curve].
In the case of `CCOC(=O)CCc1c(C)nc(SCC(=O)O)c(C#N)c1C`, the lipid storage change, negative = inhibition is reported as inconclusive: 4.94%.
With `CCN(CC)CCCN1C(=O)C(=O)/C(=C(/O)c2ccc(OC)c(Cl)c2)C1c1ccco1` (centres undefined) the lipid storage change, negative = inhibition was inconclusive: 9.05%.
With `Cc1ccc(-n2nc3c(c2NC(=O)/C=C\c2ccc4c(c2)OCO4)CSC3)cc1` the lipid storage change, negative = inhibition was inconclusive: 4.66%.
For `O=C(CSc1nc2c(cnn2-c2ccc(F)cc2)c(=O)[nH]1)N1CCCc2ccccc21`, the Potency was inconclusive: 29.1 µM [falling, single point].
For `O=C(COc1ccccc1F)Nc1ccc(-c2nc3ccccc3s2)cc1`, the Potency was inconclusive: 6.51 µM [activator, partial curve, poor fit].
For `COc1ccc(-n2nnnc2SCC(=O)c2ccc(O)c(O)c2)cc1`, the lipid storage change, negative = inhibition was inconclusive: 53.3%.
With `NNc1nnc(-c2ccccc2)c(-c2ccccc2)n1` the lipid storage change, negative = inhibition was inconclusive: -5.89%.
For `CCN(CC)C(=O)c1cc2c(=O)c3cc(Cl)ccc3oc2nc1C`, the lipid storage change, negative = inhibition was inconclusive: -0.873%.
With `CCCCn1c(SCC(=O)N(C)C2CCS(=O)(=O)C2)nc2cc(S(N)(=O)=O)ccc21` (centres undefined) the lipid storage change, negative = inhibition was inconclusive: -35.6%.
For `CCCCC(=O)/C=C/n1c(=S)oc2ccccc21`, the lipid storage change, negative = inhibition was inconclusive: -6.32%.
With `Cc1ccc(NC(=S)NC(C)(C)C)c([N+](=O)[O-])c1` the lipid storage change, negative = inhibition was inconclusive: 8.91%.
With `COc1cccc(NC(=O)c2nn(C)c(C(=O)Nc3cccc(OC)c3)c2[N+](=O)[O-])c1` the lipid storage change, negative = inhibition was inconclusive: 23%.
With `CC(C)(C)c1ccc(C(=O)N/N=C2\C3CN4CCN(C3)CC2(c2ccccc2)C4)cc1` the lipid storage change, negative = inhibition was “inactive”.
In the case of `CCOC(=O)CCc1c(C)c2ccc(OC3CCCCC3=O)c(C)c2oc1=O` (centres undefined), the Potency is reported as inconclusive: 23.1 µM [falling, partial curve, poor fit].
In the case of `O=C(CSc1ccccc1)Nc1nnc(COc2ccc(Cl)cc2)s1`, the Potency is reported as active: 9.2 µM.
For `CCOc1ccc(C2c3c(oc4ccccc4c3=O)C(=O)N2CCCN2CCOCC2)cc1OCC` (centres undefined), the Potency was inconclusive: 0.651 µM [falling, single point].
In the case of `COCc1cc(C)nc(SCC(=O)Nc2nc(C)cs2)c1C#N`, the Potency is reported as inconclusive: 6.51 µM [falling, partial curve, poor fit].
In the case of `O=C(CN1CCCC1)N1c2ccccc2Sc2ccccc21`, the lipid storage change, negative = inhibition is reported as inconclusive: -0.0298%.
For `C=CCOC(=O)C(C#N)c1nc2ccccc2nc1N1CCN(c2ccccc2OC)CC1` (centres undefined), the Potency was inconclusive: 0.146 µM [activator, partial curve].
In the case of `Cc1cc2occ(CC(=O)NNC(=O)c3ccccc3)c2cc1C`, the lipid storage change, negative = inhibition is reported as inconclusive: -10.5%.
For `Cc1ccc(NS(=O)(=O)c2ccc(C)c(NC(=O)COc3ccc4ccccc4c3)c2)c(C)c1`, the lipid storage change, negative = inhibition was inconclusive: -92.3%.
With `COc1ccc(NC(=O)C2C3C=CC4(O3)C2C(=O)N(CCCN2CCCCC2)C4C(=O)NC2CCCC(C)C2C)cc1` (centres undefined) the lipid storage change, negative = inhibition was “inactive”.
With `COc1ccc(NC(=O)CSc2nc(N)c(NC(=O)c3cccs3)c(=O)[nH]2)cc1` the lipid storage change, negative = inhibition was inconclusive: -3.54%.
With `O=C(O)[C@H](Cc1ccccc1)NC(=O)N1CCOCC1` the Potency was inconclusive: 2.06 µM [falling, full curve, poor fit].
In the case of `Cc1ccsc1/C=C(\C#N)C(=O)NCc1cccnc1`, the Potency is reported as inconclusive: 14.6 µM [activator, partial curve, poor fit].
For `O=C(OCC(=O)N1CCCCC1)c1n[nH]c(=O)c2ccccc12`, the lipid storage change, negative = inhibition was “inconclusive”.
